Results reported in paper PMC8355244, “A fragment-based approach identifies an allosteric pocket that impacts malate dehydrogenase activity” (Communications Biology, 2021).
“And” between values parts separate entries of the source, which are not always exact repeats. Equal values may be shown once. The source gives many values for each of these; only a part stands here.

By UniProt entry, the sequences of proteins in these tests, tags left out.
UniProt Q6VVP7, entry or part of it: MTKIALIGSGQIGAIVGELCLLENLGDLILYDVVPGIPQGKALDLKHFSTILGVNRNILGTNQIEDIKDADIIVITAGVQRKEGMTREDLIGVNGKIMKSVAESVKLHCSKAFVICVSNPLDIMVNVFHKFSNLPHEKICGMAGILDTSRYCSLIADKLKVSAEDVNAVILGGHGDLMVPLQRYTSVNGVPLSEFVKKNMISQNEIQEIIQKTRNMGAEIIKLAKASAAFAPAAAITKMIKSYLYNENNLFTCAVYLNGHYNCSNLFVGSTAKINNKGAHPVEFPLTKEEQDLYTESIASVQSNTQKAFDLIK

Target: T1, PfMDH (Plasmodium falciparum, UniProt Q6VVP7)
T1 construct: The full-length WT PfMDH gene was cloned into pETM-13; made in house; host or cells: E. coli Rosetta 2 (DE3) pLysS
Assay: Thermal shift assay (TSA)
Type: binding
Conditions: for TSA melting curve raw signal: triplicate columns; for TSA melting curve raw fluorescence signal: three replicate columns
Description: The TSA experiment was conducted in a BioRad CSX 96 (Biorad). Each reaction consisted of 1 mM of compound (100 mM stock in 100% (v/v) DMSO) and 10 μM PfMDH in 100 mM Na–phosphate buffer pH 7.4, 400 mM NaCl, and 10× Sypro Orange (Invitrogen) for a total volume of 100 μl. Control experiments were performed with 1% (v/v) DMSO. Inflection points were determined using BioRad CFX96™ control software. Generally, a temperature increase of over 1 °C is interpreted as a result of the stabilization of the protein-ligand interaction. On the contrary, a negative shift is considered a destabilization caused by the fragment.

For `Nc1nc(-c2ccccc2)cs1` [4PA, 4-phenylthiazol-2-amine], the “TSA melting curve raw signal” value (Temperature 25.5) was 3084.629 and 3314.487 and 3407.398, the “TSA melting curve raw signal” value (Temperature 26) was 3067.696 and 3295.097 and 3394.92 and the “TSA melting curve raw signal” value (Temperature 26.5) was 3050.763 and 3275.707 and 3382.443. The “TSA melting curve raw signal” value (Temperature 27) was 3033.83 and 3256.317 and 3369.966, the “TSA melting curve raw signal” value (Temperature 27.5) was 3016.897 and 3236.927 and 3357.488 and the “TSA melting curve raw signal” value (Temperature 28) was 2999.964 and 3217.537 and 3345.011. The “TSA melting curve raw signal” value (Temperature 44.5) was 3904.714 and 4261.911, the “TSA melting curve raw signal” value (Temperature 45) was 3805.067 and 4016.787 and 4379.089 and the “TSA melting curve raw signal” value (Temperature 45.5) was 3910.01 and 4137.366 and 4503.47. The “TSA melting curve raw signal” value (Temperature 46) was 4020.919 and 4265.686 and 4634.244, the “TSA melting curve raw signal” value (Temperature 46.5) was 4137.39 and 4400.727 and 4770.478 and the “TSA melting curve raw signal” value (Temperature 47) was 4259.115 and 4542.14 and 4911.453. The “TSA melting curve raw signal” value (Temperature 47.5) was 4385.668 and 4689.12 and 5056.693, the “TSA melting curve raw signal” value (Temperature 48) was 4516.278 and 4841.649 and 5206.114 and the “TSA melting curve raw signal” value (Temperature 48.5) was 4651.117 and 4998.262 and 5359.59. The “TSA melting curve raw signal” value (Temperature 49) was 4790.038 and 5159.489 and 5517.682, the “TSA melting curve raw signal” value (Temperature 49.5) was 4932.562 and 5323.992 and 5679.587 and the “TSA melting curve raw signal” value (Temperature 50) was 5078.328 and 5491.844 and 5845.263. For the same compound, the “TSA melting curve raw signal” value (Temperature 50.5) was 5226.894 and 5661.711 and 6014.151, the “TSA melting curve raw signal” value (Temperature 51) was 5378.539 and 5836.955 and 6187.542 and the “TSA melting curve raw signal” value (Temperature 51.5) was 5534.292 and 6017.955 and 6365.814. For the same compound, the “TSA melting curve raw signal” value (Temperature 52) was 5694.818 and 6206.067 and 6550.32, the “TSA melting curve raw signal” value (Temperature 52.5) was 5861.52 and 6401.93 and 6741.574 and the “TSA melting curve raw signal” value (Temperature 53) was 6036.077 and 6606.661 and 6940.612. For the same compound, the “TSA melting curve raw signal” value (Temperature 53.5) was 6218.806 and 6818.026 and 7146.275, the “TSA melting curve raw signal” value (Temperature 54) was 6408.713 and 7034.448 and 7357.223 and the “TSA melting curve raw signal” value (Temperature 54.5) was 6604.948 and 7254.373 and 7571.417. The “TSA melting curve raw signal” value (Temperature 55) was 6804.741 and 7474.762 and 7785.819, the “TSA melting curve raw signal” value (Temperature 55.5) was 7005.366 and 7692.449 and 7997.483 and the “TSA melting curve raw signal” value (Temperature 56) was 7203.373 and 7904.585 and 8202.991. The “TSA melting curve raw signal” value (Temperature 56.5) was 7394.744 and 8107.02 and 8397.501, the “TSA melting curve raw signal” value (Temperature 57) was 7576.136 and 8296.36 and 8577.838 and the “TSA melting curve raw signal” value (Temperature 57.5) was 7744.574 and 8469.737 and 8741.555. For the same compound, the “TSA melting curve raw signal” value (Temperature 58) was 7895.882 and 8623.488 and 8884.747, the “TSA melting curve raw signal” value (Temperature 58.5) was 8026.752 and 8754.408 and 9004.782 and the “TSA melting curve raw signal” value (Temperature 59) was 8135.752 and 8861.676 and 9101.535. For the same compound, the “TSA melting curve raw signal” value (Temperature 59.5) was 8221.132 and 8944.219 and 9173.843, the “TSA melting curve raw signal” value (Temperature 60) was 8282.224 and 9001.516 and 9221.579 and the “TSA melting curve raw signal” value (Temperature 60.5) was 8318.835 and 9035.369 and 9246.466. For the same compound, the “TSA melting curve raw signal” value (Temperature 61) was 8332.719 and 9047.448 and 9250.68, the “TSA melting curve raw signal” value (Temperature 61.5) was 8325.877 and 9039.43 and 9237.655 and the “TSA melting curve raw signal” value (Temperature 62) was 8301.151 and 9013.786 and 9210.954. The “TSA melting curve raw signal” value (Temperature 62.5) was 8261.725 and 8973.934 and 9173.651, the “TSA melting curve raw signal” value (Temperature 63) was 8212.877 and 8922.391 and 9128.752 and the “TSA melting curve raw signal” value (Temperature 63.5) was 8157.979 and 8862.823 and 9078.613. The “TSA melting curve raw signal” value (Temperature 64) was 8100.217 and 8799.277 and 9024.44, the “TSA melting curve raw signal” value (Temperature 64.5) was 8041.145 and 8734.291 and 8967.605 and the “TSA melting curve raw signal” value (Temperature 65) was 7982.263 and 8669.34 and 8909.092. For the same compound, the “TSA melting curve raw fluorescence signal” value (Temperature 65.5) was 7923.258 and 8605.873 and 8849.16, the “TSA melting curve raw fluorescence signal” value (Temperature 66) was 7864.345 and 8544.07 and 8789.228 and the “TSA melting curve raw fluorescence signal” value (Temperature 66.5) was 7804.967 and 8483.017 and 8729.364. The “TSA melting curve raw fluorescence signal” value (Temperature 67) was 7745.828 and 8422.472 and 8668.939, the “TSA melting curve raw fluorescence signal” value (Temperature 67.5) was 7686.886 and 8362.835 and 8608.061 and the “TSA melting curve raw fluorescence signal” value (Temperature 68) was 7628.545 and 8303.559 and 8547.163. For the same compound, the “TSA melting curve raw fluorescence signal” value (Temperature 68.5) was 7571.029 and 8244.637 and 8485.56, the “TSA melting curve raw fluorescence signal” value (Temperature 69) was 7513.468 and 8186.526 and 8423.17 and the “TSA melting curve raw fluorescence signal” value (Temperature 69.5) was 7455.291 and 8129.127 and 8360.962. The “TSA melting curve raw fluorescence signal” value (Temperature 70) was 7396.359 and 8070.819 and 8298.955, the “TSA melting curve raw fluorescence signal” value (Temperature 70.5) was 7336.373 and 8011.926 and 8237.077 and the “TSA melting curve raw fluorescence signal” value (Temperature 71) was 7275.089 and 7952.437 and 8175.595. The “TSA melting curve raw fluorescence signal” value (Temperature 71.5) was 7214.65 and 7891.958 and 8114.859, the “TSA melting curve raw fluorescence signal” value (Temperature 72) was 7155.72 and 7830.719 and 8054.631 and the “TSA melting curve raw fluorescence signal” value (Temperature 72.5) was 7098.673 and 7770.868 and 7995.791. The “TSA melting curve raw fluorescence signal” value (Temperature 73) was 7043.868 and 7712.418 and 7938.252, the “TSA melting curve raw fluorescence signal” value (Temperature 90) was 5956.718 and 6085.443 and the “TSA melting curve raw fluorescence signal” value (Temperature 90.5) was 5375.784 and 5904.092 and 6029.299. The “TSA melting curve raw fluorescence signal” value (Temperature 91) was 5328.576 and 5852.6 and 5973.79, the “TSA melting curve raw fluorescence signal” value (Temperature 91.5) was 5281.219 and 5802.488 and 5919.792 and the “TSA melting curve raw fluorescence signal” value (Temperature 92) was 5234.284 and 5754.1 and 5866.949. The “TSA melting curve raw fluorescence signal” value (Temperature 92.5) was 5187.516 and 5706.098 and 5814.299, the “TSA melting curve raw fluorescence signal” value (Temperature 93) was 5140.842 and 5657.232 and 5761.506 and the “TSA melting curve raw fluorescence signal” value (Temperature 93.5) was 5094.281 and 5607.784 and 5708.003. The “TSA melting curve raw fluorescence signal” value (Temperature 94) was 5048.35 and 5556.207 and 5654.849, the “TSA melting curve raw fluorescence signal” value (Temperature 94.5) was 5002.206 and 5503.967 and 5600.988 and the “TSA melting curve raw fluorescence signal” value (Temperature 95) was 4957.208 and 5448.062 and 5549.701.
